In article doi:10.1101/2021.06.09.447716:
These are yes or no findings as the source states them, for the method shown. Binding seen in cells or lysates may run through a third protein. Some results given as binding are weak or reduced against the parent protein; the word gives no strength.

By UniProt entry, the sequences of proteins in these tests, tags left out. Residues count along the entry.
UniProt P56817, residues 46-501: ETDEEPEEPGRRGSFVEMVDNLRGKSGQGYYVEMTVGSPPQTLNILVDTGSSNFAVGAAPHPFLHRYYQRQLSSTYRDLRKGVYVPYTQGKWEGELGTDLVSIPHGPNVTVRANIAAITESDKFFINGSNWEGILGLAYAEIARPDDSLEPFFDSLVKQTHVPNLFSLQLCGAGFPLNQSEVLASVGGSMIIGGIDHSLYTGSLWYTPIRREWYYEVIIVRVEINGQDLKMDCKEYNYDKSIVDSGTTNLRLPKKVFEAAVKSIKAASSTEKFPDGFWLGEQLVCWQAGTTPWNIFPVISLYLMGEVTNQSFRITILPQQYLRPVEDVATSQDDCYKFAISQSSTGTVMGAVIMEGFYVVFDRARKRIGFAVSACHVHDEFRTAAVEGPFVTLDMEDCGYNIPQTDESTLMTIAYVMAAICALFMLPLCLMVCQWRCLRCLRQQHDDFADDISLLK

Molecular target: BACE1-GFP (UniProt P56817)
Assay: co-IP

binding: binds
Substance: siRNA-resistant neuronal Bin1-MYC (brain amphiphysin II (BRAMP2); isoform 1), wild type (from UniProt O08539-1 1-588)
